System: pancreatic cancer PDX tumors
Assay: Static PET imaging in pancreatic cancer PDX-bearing mice
Type: in vivo
Procedure: All animal care and experimental procedures were performed by following the animal protocols (CCME-LiuZB-2) approved by the ethics committee of Peking University. The mice were from the Beijing Vital River Laboratory Animal Technology Co., Ltd. For cell-line–derived xenograft models, 5 × 10^6 HT-1080-FAP or HT-1080 cells were subcutaneously inoculated into the right shoulder of 6-wk-old female nu/nu-mice. To establish the patient-derived xenograft (PDX) model, tumor specimens were obtained from patients who underwent presurgical ^68Ga-FAPI-04 PET/CT imaging to confirm that the tumor was FAP-positive. After surgical resection, the tumor specimens were immediately placed in ready-to-use fresh tissue preservation solution (TM2701-100) and transported under refrigerated conditions within 2 h. The research protocol was approved by the Institutional Ethics Committee of Peking Union Medical College Hospital (JS-2628). Six-week-old female nonobese diabetic/severe combined immunodeficiency (NOD/SCID) mice were used to establish the PDX models. […] Engraftment efficiency was determined by ^68Ga-FAPI-04 PET/CT imaging (Supplemental Fig. 21A). […]

SMILES | tumor visibility on PET at 2 h after injection
Cc1cc(-c2ccc(NC(=O)CCCC(=O)N[C@@H](CCCCNC(=O)CN3CCN(CC(=O)[O-])CCN(CC(=O)[O-])CCN(CC(=O)[O-])CC3)C(=O)N3CCN(CCCOc4ccc5nccc(C(=O)NCC(=O)N6CC(F)(F)C[C@H]6C#N)c5c4)CC3)c(C)c2)ccc1N=Nc1ccc2c(S(=O)(=O)O)cc(S(=O)(=O)O)c(N)c2c1O.[86Y+3] [^86Y-TEFAPI-07] | completely visible
N#C[C@@H]1CC(F)(F)CN1C(=O)CNC(=O)c1ccnc2ccc(OCCCN3CCN(C(=O)[C@H](CCCCNC(=O)CN4CCN(CC(=O)[O-])CCN(CC(=O)[O-])CCN(CC(=O)[O-])CC4)NC(=O)CCCC(=O)NC(CCCCNC(=O)CCCc4ccc(I)cc4)C(=O)O)CC3)cc12.[86Y+3] (some centres unmarked) [^86Y-TEFAPI-06] | completely visible
